Several values for one entry are separate records, joined by “and”; a condition that tells them apart may be missing. Equal entries are not always repeated. Structures can show the parent of a compound that is named as a salt.
Assay: Experimental velocity of single fragrance ingredients (60 cm divided by time to olfactory detection) from model powder detergent in water
Details: 10 g model powder detergent in 2 liters of water, 25° C.

Compound | EV (Experimental velocity) (Table 2, Class 2 ingredients) | EV (Experimental velocity) (Table 1, Class 1 ingredients)
C/C=C/CCCCCCCC=O [(E)-undec-9-enal] | 7 cm/s | 
CC(C)C(=O)OC1CC2CC1C1C=CCC21 (stereo not shown) [3a,4,5,6,7,7a-hexahydro-1H-4,7-methanoinden-5-yl isobutyrate] | 5 cm/s | 
CCCCCC1=C(C)CCC1=O [3-methyl-2-pentylcyclopent-2-en-1-one] | 6 cm/s | 
C/C=C/c1ccc(OC)cc1 [(E)-1-methoxy-4-(prop-1-en-1-yl)benzene] | 6 cm/s | 
CC(O)COCC(C)O (stereo not shown) [1,1′-oxybis(propan-2-ol)] | 8 cm/s and 6 cm/s | 
CC/C=C\CC/C=C/CO [2-trans 6-cis nonadienol] |  | 12 cm/s
COc1ccc2ccccc2c1 [2-methoxynaphthalene] | 6 cm/s | 
CCCCCCC=O [heptanal] |  | 10 cm/s
CCCCCCC=CC#N [2-nonenenitrile] | 6 cm/s | 
CC(C)(C)[C@@H]1CCCC[C@@H]1O [(1S,2S)-2-(tert-butyl)cyclohexan-1-ol] | 6 cm/s | 
CCOc1cc(C)ccc1O [2-ethoxy-4-methylphenol] | 6 cm/s | 
C=CCCC(=O)C1=CCCC(C)(C)C1 [1-(5,5-dimethylcyclohex-1-en-1-yl)pent-4-en-1-one] |  | 10 cm/s
Cc1ccc(C(C)C)c(O)c1 [2-isopropyl-5-methylphenol] | 7 cm/s | 
CCC[C@H]1CCO[C@@H](C)S1 [(2R,4S)-2-methyl-4-propyl-1,3-oxathiane] |  | 13 cm/s
CCC(=O)OC1CC2CC1C1C=CCC21 (stereo not shown) [3a,4,5,6,7,7a-hexahydro-1H-4,7-methanoinden-5-yl propionate] | 6 cm/s | 
COC(=O)c1ccccc1N [methyl 2-aminobenzoate] |  | 9 cm/s
C=CCCCCCCC/C=C/CC#N [(E)-trideca-3,12-dienenitrile] | 6 cm/s | 
COc1ccc(C)cc1 [1-methoxy-4-methylbenzene] |  | 9 cm/s
CC/C=C\CCOC(=O)OC [(Z)-hex-3-en-1-yl methyl carbonate] | 7 cm/s | 
CC1(C)C2CC=C(CCC=O)C1C2 (stereo not shown) [6,6-dimethyl 2-norpinene-2-propionaldehyde] |  | 9 cm/s
CC1=CC(C)OC(C(C)c2ccccc2)C1 (stereo not shown) [3,6-dihydro-4,6-dimethyl-2-(1-phenylethyl)-2H-pyran] |  | 10 cm/s

Compound | EV (Experimental velocity) (Table 2, Class 2 ingredients) | EV (Experimental velocity) (Table 1, Class 1 ingredients)
CC(=O)OCCC(C)CCC=C(C)C (stereo not shown) [3,7-dimethyloct-6-en-1-yl acetate] | 5 cm/s | 
CC1=CCC(C=O)C(C)C1 (stereo not shown) [4,6-dimethylcyclohex-3-enecarbaldehyde] |  | 10 cm/s
CCCCCCCC=O [octanal] | 8 cm/s | 
5-alkyldihydro-2(3H)-furanone | 8 cm/s | 
O=CC=Cc1ccccc1 [cinnamaldehyde] | 7 cm/s | 
C=CCCC(=O)C(=C)C1CCCCC1 [2-cyclohexyl-1,6-heptadien-3-one] | 5 to 8 cm/s | 
CC1=CCC2CC1C2(C)C (stereo not shown) [2,6,6-trimethylbicyclo[3.1.1]hept-2-ene] | 6 cm/s | 9 cm/s
c1ccc(CCCc2ccccn2)cc1 [2-(3-phenylpropyl)pyridine] |  | 9 cm/s
COC(=O)C=Cc1ccccc1 [3-phenyl 2-propenoic acid, methyl ester] | 8 cm/s | 
C=C(C)C1CC=C(C)CC1 (stereo not shown) [1-methyl-4-(prop-1-en-2-yl)cyclohex-1-ene] | 7 cm/s and 5 cm/s | 11 cm/s and 9 cm/s
CC1CCC2(CCC(=O)O2)CC1 (stereo not shown) [8-methyl-1-oxaspiro(4.5)decan-2-one] | 5 to 8 cm/s | 
CC1(C)[C@@H]2CC[C@@]1(C)[C@H](O)C2 [(1R,2R,4R)-1,7,7-trimethylbicyclo[2.2.1]heptan-2-ol] | 7 cm/s | 
CC1=CCC(C(C)CC=O)CC1 (stereo not shown) [3-(4-methylcyclohex-3-en-1-yl)butanal] | 6 cm/s | 
C=C1CCOC(c2ccccc2)C1 (stereo not shown) [4-methylene-2-phenyltetrahydro-2H-pyran] |  | 10 cm/s
CCc1ccc(CC(C)(C)C=O)cc1 [3-(4-ethylphenyl)-2,2-dimethylpropanal] | 6 cm/s | 
CC1=CCC(C(C)(C)S)CC1 (stereo not shown) [para menth-1-ene-8-thiol] | 6 cm/s | 
CCCCCCCCC(C)C=O (stereo not shown) [2-methyl decanal] | 7 cm/s | 
CC1=CCC(/C=C/C(C)(C)C(C)O)C1(C)C (stereo not shown) [(E)-3,3-dimethyl-5-(2,2,3-trimethylcyclopent-3-en-1-yl)pent-4-en-2-ol] | 5 cm/s | 
CCCC(C)C(=O)OCC (stereo not shown) [ethyl 2-methylpentanoate] |  | 9 cm/s
CC(=O)c1oc2ccccc2c1C [1-(3-methylbenzofuran-2-yl)ethan-1-one] |  | 10 cm/s
CCCCCC1CCCC1=O (stereo not shown) [2-pentylcyclopentan-1-one] | 7 cm/s | 

Compound | EV (Experimental velocity) (Table 2, Class 2 ingredients) | EV (Experimental velocity) (Table 1, Class 1 ingredients)
CC1CCC2C(C)(C)C3CC12CC1OC(C)(C)OC13C (stereo not shown) [2,2,5,8,8,9a-hexamethyloctahydro-3aH-4a,9-methanoazuleno[5,6-d][1,3]dioxole] | 6 cm/s | 
CC(C)=CCCC(C)=CC=O [3,7-dimethyl-2,6-octadienal] |  | 10 cm/s
CC/C=C\CC/C=C/C=O [(2E,6Z)-nona-2,6-dienal] | 5 cm/s | 
CCCCCC=O [hexanal] | 5 cm/s | 
CCCCCCCCC/C=C/C=O [trans-2-dodecanal] | 6 cm/s | 
O=CC[C@H]1C[C@H]2C[C@@H]1[C@@H]1CCC[C@H]21 [2-((3aR,4S,5R,7S,7aR)-octahydro-1H-4,7-methanoinden-5-yl)acetaldehyde] | 5 cm/s | 
Cc1coc2ccc(O)cc12 [3-methylbenzofuran-5-ol] | 5 cm/s | 
CC1=C[C@@H](C)[C@@H](C=O)CC1 [(1S,2R)-2,4-dimethylcyclohex-3-ene-1-carbaldehyde] | 8 cm/s | 
CCOC(=O)C(C)CC (stereo not shown) [ethyl 2-methylbutanoate] |  | 12 cm/s
CCCCCCCCCC=O [decanal] |  | 9 cm/s
C=CCc1ccc(O)c(OC)c1 [4-allyl-2-methoxyphenol] | 5 cm/s | 
CCCCCCCCCCCC=O [dodecanal] | 6 cm/s | 
COc1ccc(C=O)cc1 [4-methoxybenzaldehyde] | 5 cm/s | 
CCCCCC(=O)OCC [ethyl hexanoate] |  | 10 cm/s
CC(C)=CCC/C(C)=C/COC=O [(E)-3,7-dimethylocta-2,6-dien-1-yl formate] | 5 cm/s | 
CC1=CC(C)C(C=O)C(C)C1 (stereo not shown) [2,4,6-trimethyl 3-cyclohexene-1-carboxaldehyde] |  | 13 cm/s
CC(C)C1CCC(CS)C(S)C1 (stereo not shown) [para menthane-2,7-dithiol] | 5 cm/s | 
CC(C)=CCCC(C)CC#N (stereo not shown) [3,7-dimethyloct-6-enenitrile] | 6 cm/s | 
CCCCC/C=C/CCC=O [trans 4-decen-1-al] | 8 cm/s | 
CC/C=C\CCCCC=O [cis 6-nonen-1-al] |  | 13 cm/s
CC1C(C)(C)C2CC[C@@H]3CC(C)(C)O[C@@H]3C2C1(C)C (stereo partly drawn) [(3aR,8bS)-2,2,6,6,7,8,8-heptamethyldecahydro-2H-indeno[4,5-b]furan] |  | 12 cm/s

Compound | EV (Experimental velocity) (Table 2, Class 2 ingredients) | EV (Experimental velocity) (Table 1, Class 1 ingredients)
CCCOC(C)OCCc1ccccc1 (stereo not shown) [(2-(1-propoxyethoxy)ethyl)benzene] | 6 cm/s | 
COc1nccnc1CC(C)C [2-isobutyl-3-methoxypyrazine] |  | 9 cm/s
CC/C(C)=C\CC/C(C)=C\C#N [(2Z,6Z)-3,7-dimethylnona-2,6-dienenitrile] | 6 cm/s and 8 cm/s | 
CC(=O)CCc1ccccc1 [4-phenylbutan-2-one] | 7 cm/s | 
c1coc(CSSCc2ccco2)c1 [2,2′-(dithiodimethylene)di-furan] |  | 8 cm/s
CCCCCCC=CC=O [Accord 2-nonenal, 2-nonenal] | 6 cm/s | 
CC(C)Cc1nccs1 [2-isobutylthiazole] |  | 10 cm/s
Cc1ncsc1CCO [4-methyl-5-thiazoleethanol] | 5 cm/s | 
CC(=O)/C=C/C1C(C)=CCCC1(C)C (stereo not shown) [(E)-4-(2,6,6-trimethylcyclohex-2-en-1-yl)but-3-en-2-one] | 8 cm/s | 
CC1=CCC(/C=C/C(C)C(C)O)C1(C)C (stereo not shown) [(E)-3-methyl-5-(2,2,3-trimethylcyclopent-3-en-1-yl)pent-4-en-2-ol] | 6 cm/s | 
CC1CCC(C(C)C)C(=O)C1 (stereo not shown) [5-methyl-2-(1-methylethyl)cyclohexanone] |  | 9 cm/s
CC(C)=CCCC(C)C=O (stereo not shown) [2,6-dimethylhept-5-enal] | 8 cm/s | 
c1ccc2[nH]ccc2c1 [Accord 1H-indole, 1H-indole] | 6 cm/s | 
C=CCCC(=O)C1=CC(C)(C)CCC1 [1-(3,3-dimethyl-1-cyclohexen-1-yl)-4-penten-1-one] | 5.5 cm/s | 
CC1=CC2CC(C=O)C1CC2C(C)C (stereo not shown) [8-isopropyl-6-methylbicyclo[2.2.2] oct-5-ene-2-carbaldehyde] | 6 cm/s | 
CC/C=C(\C)C(O)CCCCC (stereo not shown) [(E)-4-methyldec-3-en-5-ol] | 7 cm/s | 
CC(=O)/C(C)=C/C1C(C)=CCCC1(C)C (stereo not shown) [(E)-3-methyl-4-(2,6,6-trimethylcyclohex-2-en-1-yl)but-3-en-2-one] | 6 cm/s | 
c1ccc(Oc2ccccc2)cc1 [oxydibenzene] |  | 14 cm/s
CC12CCC(CC1)C(C)(C)O2 [1,3,3-trimethyl-2-oxabicyclo[2.2.2]octane] |  | 13 cm/s
COC(=O)c1ccccc1C [methyl 2-methylbenzoate] | 7 cm/s | 
